This is one part of the list.

By UniProt entry, the sequences of proteins in these tests, tags left out. Where a name states a change or a piece, a line headed by the entry shows the natural chain unless it says otherwise.
UniProt Q9NR96: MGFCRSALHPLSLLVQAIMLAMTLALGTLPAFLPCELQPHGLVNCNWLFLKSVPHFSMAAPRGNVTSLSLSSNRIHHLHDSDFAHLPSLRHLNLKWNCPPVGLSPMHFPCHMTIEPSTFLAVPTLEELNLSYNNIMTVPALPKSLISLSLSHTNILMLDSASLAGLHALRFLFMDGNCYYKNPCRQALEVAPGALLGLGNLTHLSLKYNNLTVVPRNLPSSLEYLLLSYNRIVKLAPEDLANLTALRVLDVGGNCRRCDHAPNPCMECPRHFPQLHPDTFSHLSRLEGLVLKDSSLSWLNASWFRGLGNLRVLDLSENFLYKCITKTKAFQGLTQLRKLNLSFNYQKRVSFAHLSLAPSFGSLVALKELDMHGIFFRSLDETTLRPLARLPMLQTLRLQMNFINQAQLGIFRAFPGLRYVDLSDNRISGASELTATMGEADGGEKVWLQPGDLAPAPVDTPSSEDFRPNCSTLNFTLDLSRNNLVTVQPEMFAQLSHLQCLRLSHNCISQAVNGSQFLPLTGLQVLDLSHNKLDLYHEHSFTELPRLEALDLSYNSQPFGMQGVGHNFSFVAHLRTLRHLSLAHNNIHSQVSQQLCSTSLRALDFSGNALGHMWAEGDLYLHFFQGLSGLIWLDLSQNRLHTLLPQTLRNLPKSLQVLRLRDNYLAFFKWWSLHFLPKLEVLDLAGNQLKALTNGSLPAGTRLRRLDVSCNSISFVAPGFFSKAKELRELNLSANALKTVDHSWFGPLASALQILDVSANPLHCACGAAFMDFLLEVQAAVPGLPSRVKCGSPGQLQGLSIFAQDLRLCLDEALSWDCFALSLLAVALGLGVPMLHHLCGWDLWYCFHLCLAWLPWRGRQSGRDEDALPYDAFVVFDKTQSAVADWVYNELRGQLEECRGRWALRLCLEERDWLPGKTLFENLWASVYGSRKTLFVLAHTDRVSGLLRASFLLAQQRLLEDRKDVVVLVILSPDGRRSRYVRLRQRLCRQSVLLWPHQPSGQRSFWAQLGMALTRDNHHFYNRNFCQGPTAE
UniProt P29401: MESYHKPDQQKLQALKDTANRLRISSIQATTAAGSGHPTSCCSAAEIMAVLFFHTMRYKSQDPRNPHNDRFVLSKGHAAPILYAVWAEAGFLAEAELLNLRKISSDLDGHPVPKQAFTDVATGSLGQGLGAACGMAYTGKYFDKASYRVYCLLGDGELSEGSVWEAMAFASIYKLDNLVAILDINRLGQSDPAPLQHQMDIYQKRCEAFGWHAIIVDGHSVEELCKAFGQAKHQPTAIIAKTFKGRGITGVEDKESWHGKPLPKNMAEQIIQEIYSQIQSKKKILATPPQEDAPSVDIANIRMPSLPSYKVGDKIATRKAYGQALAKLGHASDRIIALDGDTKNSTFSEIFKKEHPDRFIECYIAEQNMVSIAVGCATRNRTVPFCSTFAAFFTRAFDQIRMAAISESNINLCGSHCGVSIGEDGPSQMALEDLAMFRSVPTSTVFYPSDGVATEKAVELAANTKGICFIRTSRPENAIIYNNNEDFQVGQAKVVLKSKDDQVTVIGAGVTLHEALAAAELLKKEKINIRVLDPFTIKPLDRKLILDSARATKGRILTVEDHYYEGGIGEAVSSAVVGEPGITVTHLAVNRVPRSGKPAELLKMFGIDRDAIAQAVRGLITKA
UniProt O43493: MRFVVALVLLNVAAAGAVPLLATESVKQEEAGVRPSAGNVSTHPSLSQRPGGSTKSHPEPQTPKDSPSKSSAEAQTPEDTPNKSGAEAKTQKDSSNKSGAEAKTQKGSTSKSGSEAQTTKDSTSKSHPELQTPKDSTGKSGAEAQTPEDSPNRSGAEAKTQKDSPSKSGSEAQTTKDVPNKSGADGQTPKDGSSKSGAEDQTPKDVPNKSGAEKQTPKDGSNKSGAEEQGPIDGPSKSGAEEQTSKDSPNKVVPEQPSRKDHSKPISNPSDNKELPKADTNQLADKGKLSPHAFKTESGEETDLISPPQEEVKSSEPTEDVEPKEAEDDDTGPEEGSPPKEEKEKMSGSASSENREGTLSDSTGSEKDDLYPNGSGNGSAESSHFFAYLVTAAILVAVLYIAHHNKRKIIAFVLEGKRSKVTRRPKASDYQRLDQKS
UniProt Q9Y5L4: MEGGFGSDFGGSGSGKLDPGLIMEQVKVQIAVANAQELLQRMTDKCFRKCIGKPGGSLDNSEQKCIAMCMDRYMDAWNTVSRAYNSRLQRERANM
UniProt Q9Y2S6, whole entry, looked up: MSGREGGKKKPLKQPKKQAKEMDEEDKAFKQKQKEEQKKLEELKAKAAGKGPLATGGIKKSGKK
UniProt Q9NX00: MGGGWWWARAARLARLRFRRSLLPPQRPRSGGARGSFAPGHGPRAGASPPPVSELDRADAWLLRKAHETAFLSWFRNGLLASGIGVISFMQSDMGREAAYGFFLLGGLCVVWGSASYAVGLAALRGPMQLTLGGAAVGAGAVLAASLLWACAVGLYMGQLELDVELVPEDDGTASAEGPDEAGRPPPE
UniProt Q9Y584: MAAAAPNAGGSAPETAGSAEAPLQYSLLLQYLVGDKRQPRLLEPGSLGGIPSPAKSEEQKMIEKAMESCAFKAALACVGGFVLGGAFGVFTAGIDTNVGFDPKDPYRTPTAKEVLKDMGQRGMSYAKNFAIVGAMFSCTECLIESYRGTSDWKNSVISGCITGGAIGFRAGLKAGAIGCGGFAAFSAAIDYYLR
UniProt Q86XR7, whole entry, looked up: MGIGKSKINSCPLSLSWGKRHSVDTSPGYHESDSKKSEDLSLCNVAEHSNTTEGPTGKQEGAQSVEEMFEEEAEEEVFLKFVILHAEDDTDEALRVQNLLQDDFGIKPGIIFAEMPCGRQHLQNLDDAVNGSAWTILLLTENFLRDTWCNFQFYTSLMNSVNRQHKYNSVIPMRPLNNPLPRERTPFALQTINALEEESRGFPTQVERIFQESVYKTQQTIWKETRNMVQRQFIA
UniProt P49755: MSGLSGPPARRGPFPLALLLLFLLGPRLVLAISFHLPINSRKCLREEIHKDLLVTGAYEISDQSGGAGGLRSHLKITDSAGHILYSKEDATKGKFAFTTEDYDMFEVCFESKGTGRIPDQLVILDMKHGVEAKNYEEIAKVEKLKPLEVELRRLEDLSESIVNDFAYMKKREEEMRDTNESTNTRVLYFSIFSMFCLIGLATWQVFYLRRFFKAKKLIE
UniProt Q99595: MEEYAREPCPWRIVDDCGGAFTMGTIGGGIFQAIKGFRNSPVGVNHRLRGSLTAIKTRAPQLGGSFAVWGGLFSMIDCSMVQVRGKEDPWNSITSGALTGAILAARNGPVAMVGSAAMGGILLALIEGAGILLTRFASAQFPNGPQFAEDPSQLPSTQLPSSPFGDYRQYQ
UniProt Q96I45: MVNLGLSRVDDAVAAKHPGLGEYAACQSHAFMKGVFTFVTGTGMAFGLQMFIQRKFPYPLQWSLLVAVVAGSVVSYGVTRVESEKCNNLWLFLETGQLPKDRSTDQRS
UniProt Q96CP7: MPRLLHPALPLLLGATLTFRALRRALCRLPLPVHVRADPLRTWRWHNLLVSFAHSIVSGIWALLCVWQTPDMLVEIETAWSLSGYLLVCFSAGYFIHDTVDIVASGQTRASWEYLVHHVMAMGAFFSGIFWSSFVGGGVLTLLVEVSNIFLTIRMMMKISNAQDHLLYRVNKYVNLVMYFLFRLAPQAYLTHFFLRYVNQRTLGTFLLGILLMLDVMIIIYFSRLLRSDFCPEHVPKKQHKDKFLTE
UniProt P04183: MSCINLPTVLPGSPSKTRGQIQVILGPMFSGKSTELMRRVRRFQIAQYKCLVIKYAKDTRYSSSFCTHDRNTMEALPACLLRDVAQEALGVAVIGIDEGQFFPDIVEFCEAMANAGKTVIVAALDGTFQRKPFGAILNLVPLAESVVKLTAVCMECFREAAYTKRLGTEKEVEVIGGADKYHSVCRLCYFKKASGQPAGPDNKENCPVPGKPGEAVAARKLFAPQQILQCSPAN
UniProt Q9UM00: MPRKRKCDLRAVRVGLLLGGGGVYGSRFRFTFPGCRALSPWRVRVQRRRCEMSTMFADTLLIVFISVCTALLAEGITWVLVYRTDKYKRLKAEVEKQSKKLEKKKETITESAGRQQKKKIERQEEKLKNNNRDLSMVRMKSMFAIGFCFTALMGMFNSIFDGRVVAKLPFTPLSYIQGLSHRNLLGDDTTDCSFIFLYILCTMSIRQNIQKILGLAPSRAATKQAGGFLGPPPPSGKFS
UniProt Q9Y5J7: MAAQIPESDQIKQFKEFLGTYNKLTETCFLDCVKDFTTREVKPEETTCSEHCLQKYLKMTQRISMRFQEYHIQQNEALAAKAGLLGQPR
UniProt Q9BU02: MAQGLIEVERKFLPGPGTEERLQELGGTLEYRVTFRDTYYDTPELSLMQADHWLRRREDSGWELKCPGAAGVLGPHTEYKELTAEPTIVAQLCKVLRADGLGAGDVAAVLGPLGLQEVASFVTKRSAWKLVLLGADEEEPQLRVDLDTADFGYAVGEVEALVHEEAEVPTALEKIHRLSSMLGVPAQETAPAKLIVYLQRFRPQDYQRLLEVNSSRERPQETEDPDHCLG
UniProt O14925: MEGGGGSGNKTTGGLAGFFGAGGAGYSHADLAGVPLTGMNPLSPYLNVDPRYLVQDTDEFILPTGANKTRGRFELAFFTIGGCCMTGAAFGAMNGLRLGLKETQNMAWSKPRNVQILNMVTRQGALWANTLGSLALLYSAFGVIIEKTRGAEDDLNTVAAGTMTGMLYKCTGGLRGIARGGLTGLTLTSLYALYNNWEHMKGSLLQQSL
UniProt Q5TEJ8: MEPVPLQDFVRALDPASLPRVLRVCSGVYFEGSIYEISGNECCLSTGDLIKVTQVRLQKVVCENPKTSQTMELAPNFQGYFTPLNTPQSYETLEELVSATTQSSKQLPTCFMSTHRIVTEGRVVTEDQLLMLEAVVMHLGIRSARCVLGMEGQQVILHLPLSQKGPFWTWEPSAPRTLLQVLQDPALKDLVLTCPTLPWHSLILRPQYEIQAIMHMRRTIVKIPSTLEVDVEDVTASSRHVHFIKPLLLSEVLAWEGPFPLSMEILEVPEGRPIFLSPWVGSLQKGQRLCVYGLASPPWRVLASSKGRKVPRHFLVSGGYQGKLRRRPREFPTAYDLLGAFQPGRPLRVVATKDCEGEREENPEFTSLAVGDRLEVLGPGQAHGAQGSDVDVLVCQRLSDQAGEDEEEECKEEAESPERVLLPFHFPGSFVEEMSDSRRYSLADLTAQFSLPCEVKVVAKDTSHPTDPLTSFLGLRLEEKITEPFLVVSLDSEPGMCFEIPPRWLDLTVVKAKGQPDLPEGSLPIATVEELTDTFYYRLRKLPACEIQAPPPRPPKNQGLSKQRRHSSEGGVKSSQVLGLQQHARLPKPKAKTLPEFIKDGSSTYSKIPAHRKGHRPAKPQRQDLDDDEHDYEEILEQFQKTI
UniProt Q5JTD0: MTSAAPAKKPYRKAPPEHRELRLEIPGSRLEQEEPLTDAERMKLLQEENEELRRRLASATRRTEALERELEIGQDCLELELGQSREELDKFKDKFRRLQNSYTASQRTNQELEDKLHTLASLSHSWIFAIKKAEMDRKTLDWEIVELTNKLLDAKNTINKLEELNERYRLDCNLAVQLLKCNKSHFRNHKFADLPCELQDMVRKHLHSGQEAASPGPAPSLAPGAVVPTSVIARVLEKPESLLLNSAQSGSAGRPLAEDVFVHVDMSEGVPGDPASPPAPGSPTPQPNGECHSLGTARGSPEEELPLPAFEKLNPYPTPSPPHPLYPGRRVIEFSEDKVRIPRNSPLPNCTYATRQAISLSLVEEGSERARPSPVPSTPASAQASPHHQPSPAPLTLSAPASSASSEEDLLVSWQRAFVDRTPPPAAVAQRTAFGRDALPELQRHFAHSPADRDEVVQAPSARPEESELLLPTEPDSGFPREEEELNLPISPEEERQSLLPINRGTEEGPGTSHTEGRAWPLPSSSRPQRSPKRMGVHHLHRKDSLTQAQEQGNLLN
UniProt Q9HC07: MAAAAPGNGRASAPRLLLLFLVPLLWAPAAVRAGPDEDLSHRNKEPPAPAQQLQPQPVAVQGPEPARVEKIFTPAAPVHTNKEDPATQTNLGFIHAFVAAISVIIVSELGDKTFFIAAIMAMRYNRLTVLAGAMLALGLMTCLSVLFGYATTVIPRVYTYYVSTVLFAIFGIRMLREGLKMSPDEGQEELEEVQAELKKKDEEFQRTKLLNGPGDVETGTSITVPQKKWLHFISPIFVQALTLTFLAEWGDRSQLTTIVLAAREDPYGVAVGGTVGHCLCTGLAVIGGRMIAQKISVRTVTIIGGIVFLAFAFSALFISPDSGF
UniProt Q9NPL8: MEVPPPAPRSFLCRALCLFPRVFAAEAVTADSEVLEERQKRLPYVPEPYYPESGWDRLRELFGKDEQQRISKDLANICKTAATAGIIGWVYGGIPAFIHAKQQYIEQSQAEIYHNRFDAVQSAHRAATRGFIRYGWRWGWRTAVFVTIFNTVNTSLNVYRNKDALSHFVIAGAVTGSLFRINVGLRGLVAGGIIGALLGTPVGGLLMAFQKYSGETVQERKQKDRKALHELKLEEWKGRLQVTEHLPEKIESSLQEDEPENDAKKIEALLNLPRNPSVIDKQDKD

Compound in this assay: c1ccc([C@@H]2C[C@H]2NC2CCNCC2)cc1
Briefly: log2 fold change, soluble protein after heating vs DMSO (PISA); higher = thermal stabilisation; K562 lysate, 10 uM; active = over 0.2 and 3.5 SD of the protein, either way, in both replicates (recomputed). In outline:
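Dounce homogenisation of K562 pellets in PBS pH 7.4 with 1 mM MgCl2 produced a crude extract, used at 1 mg/mL protein. Exposure to 10 μM compound lasted 30 min, and aliquots were then heated for 3 min across 48°C-58°C, pooled and brought to 0.5% NP-40 at 4°C. The supernatant after 21,000xg for 90 min was quantified by TMTpro 16plex LC-MS/MS with channel sums equalised. Duplicate values are given as log-two fold change in thermal stability relative to solvent controls.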
As to TIMP1 (UniProt P01033), the log2 fold change was inactive: -0.046.

For TLR9 isoform 4 (UniProt Q9NR96), the log2 fold change is inactive: -0.15.

As for TKT isoform 2 (UniProt P29401), the log2 fold change is inactive: 0.008.

As for THUMPD1 (UniProt Q9NXG2), the log2 fold change was inactive: 0.002.

TGOLN2 isoform 7 (UniProt O43493): the log2 fold change was inactive: -0.069.

Take TIMM13 (UniProt Q9Y5L4): the log2 fold change was inactive: 0.072.

As for TGFB1 (UniProt P01137), the log2 fold change was inactive: -0.023.

Turning to TJP1 (UniProt G3V1L9), the log2 fold change is inactive: -0.007.

Turning to TMEM120A (UniProt Q9BXJ8), the log2 fold change is inactive: 0.046.

On to TIPIN (UniProt Q9BVW5), for which the log2 fold change is inactive: -0.066.

In the case of TMA7 (UniProt Q9Y2S6), the log2 fold change is inactive: -0.091.

For THRAP3 (UniProt Q9Y2W1), the log2 fold change is inactive: -0.051.

In the case of TMEM160 (UniProt Q9NX00), the log2 fold change is inactive: 0.032.

Consider TIMM22 (UniProt Q9Y584), for which the log2 fold change is inactive: 0.002.

Consider TICAM2 isoform 2 (UniProt Q86XR7), for which the log2 fold change is inactive: -0.008.

For the target TMCO6 isoform 2 (UniProt Q96DC7), the log2 fold change is inactive: 0.13.

For the target THAP9 (UniProt Q9H5L6), the log2 fold change was inactive: -0.284.

Regarding TMEM181 (UniProt Q9P2C4), the log2 fold change was inactive: -0.009.

Regarding TJP1 isoform 2 (UniProt Q07157), the log2 fold change was inactive: -0.009.

For the target TMED10 (UniProt P49755), the log2 fold change was inactive: 0.085.

TIMM17A (UniProt Q99595): the log2 fold change is inactive: -0.005.

On to TMEM141 (UniProt Q96I45), for which the log2 fold change was inactive: -0.032.

For TMBIM1 (UniProt Q969X1), the log2 fold change was inactive: -0.015.

With TLCD1 (UniProt Q96CP7), the log2 fold change is inactive: 0.068.

For the target TK1 (UniProt P04183), the log2 fold change was inactive: -0.116.

TMCO1 (UniProt Q9UM00): the log2 fold change was inactive: 0.157.

As to TIMM9 (UniProt Q9Y5J7), the log2 fold change was inactive: 0.118.

With TLCD4 (UniProt Q96MV1), the log2 fold change is inactive: -0.086.

As to THTPA (UniProt Q9BU02), the log2 fold change was inactive: 0.001.

In the case of TM9SF3 (UniProt Q9HD45), the log2 fold change was inactive: -0.003.

Turning to TIMM23 (UniProt O14925), the log2 fold change was inactive: -0.071.

Consider THEMIS2 (UniProt Q5TEJ8), for which the log2 fold change is inactive: -0.054.

Regarding TJAP1 (UniProt Q5JTD0), the log2 fold change is inactive: -0.01.

As for TMEM165 (UniProt Q9HC07), the log2 fold change is inactive: -0.027.

On to TIMMDC1 (UniProt Q9NPL8), for which the log2 fold change is inactive: -0.026.

(Values after the supplement of paper PMC10849652.)
